Read-outs that look alike come from different tables or passages of the source. Results are given in words; binding and its absence hold for the method and conditions named. In cells and extracts the contact can be indirect. Some results given as binding are weak or reduced against the parent protein; the word gives no strength.

Amino acid sequences for entries named in this document (tags omitted). Residues count along the entry.
UniProt Q9EPL4, residues 19-318: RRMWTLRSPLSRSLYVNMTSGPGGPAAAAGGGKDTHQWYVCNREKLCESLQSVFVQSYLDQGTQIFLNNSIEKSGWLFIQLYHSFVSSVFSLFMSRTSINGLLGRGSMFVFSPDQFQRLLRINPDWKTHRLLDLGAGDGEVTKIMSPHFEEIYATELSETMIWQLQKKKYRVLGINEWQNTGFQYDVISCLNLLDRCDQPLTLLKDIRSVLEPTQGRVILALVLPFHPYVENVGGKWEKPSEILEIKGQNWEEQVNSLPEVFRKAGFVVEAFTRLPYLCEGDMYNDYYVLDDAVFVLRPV

For assay [1], the target named is METTL9-FLAG wild type (mouse) (mouse) (UniProt Q9EPL4). Put plainly: co-IP.
Assay [2] has the same target. Put plainly: co-IP. The source holds these as a separate data set.

Turning to “METTL9-FLAG wild type (mouse) (from UniProt Q9EPL4 19-318) (enzyme)”, the binding result in assay [1] and in assay [2] was “binds” in each case.

The values are drawn from doi:10.64898/2025.12.23.696137.
